No constants are given. Whether binding was seen depends on the method and setting. Binding seen in cells or lysates may run through a third protein. A yes stands for co-enrichment or nearness to the bait. Other partners may have been found.
Target: T1, Bol3-Strep (S. cerevisiae) (UniProt P39724)
T1 sequence: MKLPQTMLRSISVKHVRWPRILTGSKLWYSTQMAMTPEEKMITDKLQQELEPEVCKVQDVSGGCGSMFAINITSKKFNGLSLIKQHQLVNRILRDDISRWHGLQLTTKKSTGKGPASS
Assay: affinity purification with mass spectrometry; Strep-tagged bait from low-copy plasmids in the corresponding single deletion mutants; Strep-Tactin purification from solubilized mitochondria; eluates analysed on a Q-Exactive; multiple independent analyses

Sequences of proteins named here, by UniProt entry; tags and fusion partners are left off. Residues count along the entry.
UniProt P39522, residues 21-585: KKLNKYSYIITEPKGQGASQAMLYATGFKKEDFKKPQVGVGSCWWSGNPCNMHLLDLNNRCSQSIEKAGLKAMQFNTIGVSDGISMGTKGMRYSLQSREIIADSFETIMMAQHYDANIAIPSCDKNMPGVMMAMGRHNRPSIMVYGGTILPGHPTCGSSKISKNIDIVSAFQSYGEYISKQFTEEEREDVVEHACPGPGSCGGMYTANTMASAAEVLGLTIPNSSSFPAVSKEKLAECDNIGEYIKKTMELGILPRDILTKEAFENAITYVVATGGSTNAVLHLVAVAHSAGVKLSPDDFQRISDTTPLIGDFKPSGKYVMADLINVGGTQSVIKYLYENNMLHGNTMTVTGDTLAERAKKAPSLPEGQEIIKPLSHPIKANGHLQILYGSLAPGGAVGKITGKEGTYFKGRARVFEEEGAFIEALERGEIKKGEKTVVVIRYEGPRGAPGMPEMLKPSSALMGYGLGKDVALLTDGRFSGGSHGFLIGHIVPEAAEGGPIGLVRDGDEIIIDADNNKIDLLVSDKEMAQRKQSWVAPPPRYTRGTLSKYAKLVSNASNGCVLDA

binding	Substance
binds weakly	Nfu1 (endogenous)
binds	dihydroxyacid dehydratase (Ilv3) (from UniProt P39522 21-585) (enzyme)

Reference: article PMC5014551
